Measurements from patent publication US11400134B2, “Modulating gamma-c-cytokine activity” (Bioniz, LLC, priority 2015, dated 2022).
Not every detail of the peptide structures is certain; ends, links or a residue may be inferred. Peptide text beside a SMILES is read from it.

Test system: PBMC from HAM/TSP patient
Assay: Ex vivo spontaneous T-cell proliferation assay, HAM/TSP patient PBMC (3H-thymidine, flow cytometry, Guava staining)
Format: cell-based, human

CC[C@H](C)[C@H](N)C(=O)N[C@@H](CCCCN)C(=O)N[C@@H](CCC(=O)O)C(=O)N[C@@H](Cc1ccccc1)C(=O)N[C@@H](CC(C)C)C(=O)N[C@@H](CCC(N)=O)C(=O)N[C@@H](CCCNC(=N)N)C(=O)N[C@@H](Cc1ccccc1)C(=O)N[C@H](C(=O)N[C@@H](Cc1c[nH]cn1)C(=O)N[C@H](C(=O)N[C@H](C(=O)N[C@@H](CCC(N)=O)C(=O)N[C@@H](CO)C(=O)N[C@H](C(=O)N[C@H](C(=O)N[C@@H](CC(N)=O)C(=O)N[C@H](C(=O)N[C@@H](CO)C(=O)O)[C@@H](C)O)[C@@H](C)CC)[C@@H](C)CC)C(C)C)[C@@H](C)CC)[C@@H](C)CC [BNZ-γ, I-K-E-F-L-Q-R-F-I-H-I-V-Q-S-I-I-N-T-S] (H-IKEFLQRFIHIVQSIINTS-OH)
concentration that inhibits spontaneous proliferation of T-cells (HAM/TSP PBMC culture, 3, 4 and 6 days, 3H-thymidine): about 1 ug/ml
T-cell proliferation (HAM/TSP peripheral blood ex vivo, FIG. 4A): inhibited
population of CD4+CD25+ cells (HAM/TSP peripheral blood ex vivo, flow cytometry, FIG. 4B): diminished
population of CD4+Ki67 cells (HAM/TSP peripheral blood ex vivo, flow cytometry, FIG. 4C): reduced
